Test results taken from the supplement of paper PMC12067093, “Discovery and optimisation of a covalent ligand for TRIM25 and its application to targeted protein ubiquitination” (Chemical Science, 2025).
Some of the results follow.

The chains behind the UniProt entries cited, without tags or fusion partners. Where a name states a change or a piece, a line headed by the entry shows the natural chain unless it says otherwise.
UniProt Q8IWR0: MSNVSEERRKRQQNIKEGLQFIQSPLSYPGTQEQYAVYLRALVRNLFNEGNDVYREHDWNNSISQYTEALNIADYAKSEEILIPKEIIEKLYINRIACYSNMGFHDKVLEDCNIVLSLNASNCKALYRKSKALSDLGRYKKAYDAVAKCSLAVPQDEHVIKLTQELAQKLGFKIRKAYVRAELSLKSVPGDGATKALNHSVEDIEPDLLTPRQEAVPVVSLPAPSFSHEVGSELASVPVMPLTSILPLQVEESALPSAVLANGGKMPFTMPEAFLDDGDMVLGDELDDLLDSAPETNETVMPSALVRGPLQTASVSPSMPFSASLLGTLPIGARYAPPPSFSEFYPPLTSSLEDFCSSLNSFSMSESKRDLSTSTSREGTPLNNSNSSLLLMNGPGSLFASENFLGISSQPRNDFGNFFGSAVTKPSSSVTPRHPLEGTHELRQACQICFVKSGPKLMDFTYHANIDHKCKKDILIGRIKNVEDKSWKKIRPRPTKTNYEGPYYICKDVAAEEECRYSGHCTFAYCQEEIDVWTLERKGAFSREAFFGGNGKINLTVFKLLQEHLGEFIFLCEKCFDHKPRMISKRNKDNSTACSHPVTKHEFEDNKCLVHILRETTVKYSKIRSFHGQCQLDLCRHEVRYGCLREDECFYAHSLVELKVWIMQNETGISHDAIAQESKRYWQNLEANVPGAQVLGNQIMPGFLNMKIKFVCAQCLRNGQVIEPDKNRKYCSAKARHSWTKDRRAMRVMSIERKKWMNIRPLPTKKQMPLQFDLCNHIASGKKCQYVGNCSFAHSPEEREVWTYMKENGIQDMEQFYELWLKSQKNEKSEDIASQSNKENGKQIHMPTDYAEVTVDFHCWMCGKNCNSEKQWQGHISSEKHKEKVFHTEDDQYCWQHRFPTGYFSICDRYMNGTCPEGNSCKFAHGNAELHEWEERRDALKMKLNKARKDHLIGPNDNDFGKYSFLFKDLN
UniProt P18887, whole entry, looked up: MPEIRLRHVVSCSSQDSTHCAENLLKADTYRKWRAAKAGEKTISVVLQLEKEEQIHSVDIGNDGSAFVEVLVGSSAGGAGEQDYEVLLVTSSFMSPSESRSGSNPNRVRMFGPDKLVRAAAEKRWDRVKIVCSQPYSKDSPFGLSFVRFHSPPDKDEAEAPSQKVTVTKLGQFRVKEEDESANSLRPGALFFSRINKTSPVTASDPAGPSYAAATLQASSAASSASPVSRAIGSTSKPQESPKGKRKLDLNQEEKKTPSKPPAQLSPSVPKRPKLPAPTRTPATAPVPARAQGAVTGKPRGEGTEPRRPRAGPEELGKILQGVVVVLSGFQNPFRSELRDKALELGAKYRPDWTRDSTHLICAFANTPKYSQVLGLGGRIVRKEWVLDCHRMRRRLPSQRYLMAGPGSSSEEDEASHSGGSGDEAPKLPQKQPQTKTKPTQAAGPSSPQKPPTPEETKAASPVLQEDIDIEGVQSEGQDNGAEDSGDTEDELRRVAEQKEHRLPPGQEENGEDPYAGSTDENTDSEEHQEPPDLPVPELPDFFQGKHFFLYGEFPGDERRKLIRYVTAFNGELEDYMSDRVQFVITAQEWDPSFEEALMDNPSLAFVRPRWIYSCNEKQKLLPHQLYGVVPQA
UniProt Q9NUD5: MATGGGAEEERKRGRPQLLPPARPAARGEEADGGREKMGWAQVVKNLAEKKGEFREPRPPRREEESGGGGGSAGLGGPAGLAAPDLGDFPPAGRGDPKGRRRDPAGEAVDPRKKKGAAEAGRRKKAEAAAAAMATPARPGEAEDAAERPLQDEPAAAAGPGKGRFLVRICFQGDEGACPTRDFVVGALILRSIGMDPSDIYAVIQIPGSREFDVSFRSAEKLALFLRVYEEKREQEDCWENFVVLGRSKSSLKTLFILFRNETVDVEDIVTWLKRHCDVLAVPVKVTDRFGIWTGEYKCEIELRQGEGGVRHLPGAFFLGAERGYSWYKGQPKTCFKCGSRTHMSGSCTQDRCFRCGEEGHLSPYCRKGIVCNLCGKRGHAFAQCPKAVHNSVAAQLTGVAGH
UniProt P62258: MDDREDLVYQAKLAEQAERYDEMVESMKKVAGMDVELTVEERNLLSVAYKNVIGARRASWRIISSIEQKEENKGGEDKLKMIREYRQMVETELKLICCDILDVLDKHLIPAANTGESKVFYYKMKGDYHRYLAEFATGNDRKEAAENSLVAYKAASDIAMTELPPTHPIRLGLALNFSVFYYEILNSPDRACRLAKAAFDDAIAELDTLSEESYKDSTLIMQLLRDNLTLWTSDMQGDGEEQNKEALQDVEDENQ
UniProt Q9UIA9: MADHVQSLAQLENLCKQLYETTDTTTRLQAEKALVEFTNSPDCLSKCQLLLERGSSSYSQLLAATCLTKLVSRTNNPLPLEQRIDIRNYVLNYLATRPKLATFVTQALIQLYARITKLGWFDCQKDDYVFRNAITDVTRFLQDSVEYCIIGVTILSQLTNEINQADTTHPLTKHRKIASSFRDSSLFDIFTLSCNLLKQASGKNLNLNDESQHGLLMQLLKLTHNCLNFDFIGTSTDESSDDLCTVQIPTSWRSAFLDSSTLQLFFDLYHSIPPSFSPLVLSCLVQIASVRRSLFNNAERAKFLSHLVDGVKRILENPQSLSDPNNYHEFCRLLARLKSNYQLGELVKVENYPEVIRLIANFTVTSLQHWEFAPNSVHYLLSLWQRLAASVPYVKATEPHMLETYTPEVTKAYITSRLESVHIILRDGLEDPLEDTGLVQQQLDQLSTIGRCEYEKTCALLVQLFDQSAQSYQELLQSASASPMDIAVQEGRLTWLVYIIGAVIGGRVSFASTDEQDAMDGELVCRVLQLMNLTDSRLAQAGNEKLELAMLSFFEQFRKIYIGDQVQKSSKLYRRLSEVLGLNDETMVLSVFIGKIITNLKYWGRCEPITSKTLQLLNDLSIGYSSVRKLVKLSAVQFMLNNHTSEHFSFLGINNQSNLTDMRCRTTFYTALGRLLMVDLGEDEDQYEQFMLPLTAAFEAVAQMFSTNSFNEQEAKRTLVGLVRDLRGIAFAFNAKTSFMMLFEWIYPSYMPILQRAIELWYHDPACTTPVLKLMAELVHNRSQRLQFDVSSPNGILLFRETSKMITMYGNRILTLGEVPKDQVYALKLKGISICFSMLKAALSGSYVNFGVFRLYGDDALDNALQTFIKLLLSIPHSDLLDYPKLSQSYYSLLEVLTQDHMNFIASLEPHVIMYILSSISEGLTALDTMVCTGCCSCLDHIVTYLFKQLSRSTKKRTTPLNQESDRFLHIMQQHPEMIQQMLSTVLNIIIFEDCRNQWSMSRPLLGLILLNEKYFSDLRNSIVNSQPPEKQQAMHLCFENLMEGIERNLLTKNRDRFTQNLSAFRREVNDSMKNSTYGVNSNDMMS
UniProt Q9UPT8: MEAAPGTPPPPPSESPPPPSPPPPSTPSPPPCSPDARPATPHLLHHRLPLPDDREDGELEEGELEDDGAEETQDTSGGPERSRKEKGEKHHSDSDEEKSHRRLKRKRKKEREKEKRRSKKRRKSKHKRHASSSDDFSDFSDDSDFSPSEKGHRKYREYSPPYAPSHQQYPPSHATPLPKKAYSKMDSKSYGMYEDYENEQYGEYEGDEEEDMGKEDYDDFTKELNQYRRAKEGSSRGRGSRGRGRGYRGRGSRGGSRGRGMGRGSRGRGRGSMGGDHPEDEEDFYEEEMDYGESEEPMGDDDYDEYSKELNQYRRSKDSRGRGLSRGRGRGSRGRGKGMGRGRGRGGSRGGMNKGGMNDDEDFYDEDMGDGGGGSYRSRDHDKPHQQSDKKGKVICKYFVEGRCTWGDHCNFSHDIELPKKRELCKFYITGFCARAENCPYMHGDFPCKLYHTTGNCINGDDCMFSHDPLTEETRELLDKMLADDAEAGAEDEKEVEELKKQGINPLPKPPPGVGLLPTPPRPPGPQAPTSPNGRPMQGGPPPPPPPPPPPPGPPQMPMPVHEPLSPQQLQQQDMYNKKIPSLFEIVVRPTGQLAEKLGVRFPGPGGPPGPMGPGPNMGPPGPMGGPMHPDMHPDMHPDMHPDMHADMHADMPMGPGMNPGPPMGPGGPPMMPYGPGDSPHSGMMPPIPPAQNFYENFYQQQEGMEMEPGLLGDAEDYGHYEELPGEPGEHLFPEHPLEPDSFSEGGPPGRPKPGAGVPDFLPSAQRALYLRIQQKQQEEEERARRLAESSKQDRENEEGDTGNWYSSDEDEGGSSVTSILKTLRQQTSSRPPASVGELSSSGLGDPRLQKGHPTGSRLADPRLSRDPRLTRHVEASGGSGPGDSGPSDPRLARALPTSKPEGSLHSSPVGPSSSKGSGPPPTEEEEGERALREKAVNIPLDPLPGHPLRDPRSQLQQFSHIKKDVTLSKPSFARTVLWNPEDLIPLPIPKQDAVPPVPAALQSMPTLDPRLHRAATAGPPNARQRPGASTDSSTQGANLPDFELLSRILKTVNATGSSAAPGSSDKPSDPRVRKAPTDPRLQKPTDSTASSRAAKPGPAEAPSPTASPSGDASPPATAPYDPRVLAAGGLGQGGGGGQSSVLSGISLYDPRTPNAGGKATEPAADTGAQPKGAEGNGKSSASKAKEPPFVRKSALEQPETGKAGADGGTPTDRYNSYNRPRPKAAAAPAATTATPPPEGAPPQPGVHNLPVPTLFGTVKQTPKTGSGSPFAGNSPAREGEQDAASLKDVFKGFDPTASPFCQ
UniProt Q8TBK6: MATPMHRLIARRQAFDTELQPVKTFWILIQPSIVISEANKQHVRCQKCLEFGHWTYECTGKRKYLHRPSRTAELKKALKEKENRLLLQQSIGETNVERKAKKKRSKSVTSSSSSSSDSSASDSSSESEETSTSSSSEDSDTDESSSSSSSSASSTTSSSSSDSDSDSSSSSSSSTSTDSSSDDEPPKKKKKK
UniProt Q5D1E8: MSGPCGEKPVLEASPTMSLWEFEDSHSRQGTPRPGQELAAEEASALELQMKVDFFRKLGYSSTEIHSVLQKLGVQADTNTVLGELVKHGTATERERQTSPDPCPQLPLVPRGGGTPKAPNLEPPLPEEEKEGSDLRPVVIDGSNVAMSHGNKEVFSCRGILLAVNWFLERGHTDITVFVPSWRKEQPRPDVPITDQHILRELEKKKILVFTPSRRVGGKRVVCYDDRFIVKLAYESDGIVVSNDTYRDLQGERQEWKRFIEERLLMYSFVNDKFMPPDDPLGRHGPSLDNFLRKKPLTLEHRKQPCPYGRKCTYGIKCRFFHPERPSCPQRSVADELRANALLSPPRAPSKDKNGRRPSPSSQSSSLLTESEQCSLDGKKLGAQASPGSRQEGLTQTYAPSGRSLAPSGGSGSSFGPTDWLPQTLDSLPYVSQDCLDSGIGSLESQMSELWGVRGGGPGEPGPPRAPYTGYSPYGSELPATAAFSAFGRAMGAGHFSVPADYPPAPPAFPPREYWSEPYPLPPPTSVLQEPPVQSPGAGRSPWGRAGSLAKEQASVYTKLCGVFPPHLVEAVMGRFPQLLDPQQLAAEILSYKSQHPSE
UniProt Q8N4Q0: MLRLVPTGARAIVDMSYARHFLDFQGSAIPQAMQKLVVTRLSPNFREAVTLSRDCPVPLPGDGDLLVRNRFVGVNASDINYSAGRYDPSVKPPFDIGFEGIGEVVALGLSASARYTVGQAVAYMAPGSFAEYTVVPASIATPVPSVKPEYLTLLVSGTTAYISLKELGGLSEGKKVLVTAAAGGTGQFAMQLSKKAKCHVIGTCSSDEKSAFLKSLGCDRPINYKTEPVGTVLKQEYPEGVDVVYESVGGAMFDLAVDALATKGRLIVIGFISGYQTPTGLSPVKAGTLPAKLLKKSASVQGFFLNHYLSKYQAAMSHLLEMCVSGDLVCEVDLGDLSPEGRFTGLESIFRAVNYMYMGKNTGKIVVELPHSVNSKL
UniProt Q6FIF0: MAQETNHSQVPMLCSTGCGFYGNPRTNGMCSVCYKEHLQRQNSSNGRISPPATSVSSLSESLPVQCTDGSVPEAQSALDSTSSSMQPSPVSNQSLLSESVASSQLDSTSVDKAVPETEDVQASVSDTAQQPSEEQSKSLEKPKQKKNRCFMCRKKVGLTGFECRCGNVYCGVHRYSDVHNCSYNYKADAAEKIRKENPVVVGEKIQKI
UniProt Q9Y2Z4: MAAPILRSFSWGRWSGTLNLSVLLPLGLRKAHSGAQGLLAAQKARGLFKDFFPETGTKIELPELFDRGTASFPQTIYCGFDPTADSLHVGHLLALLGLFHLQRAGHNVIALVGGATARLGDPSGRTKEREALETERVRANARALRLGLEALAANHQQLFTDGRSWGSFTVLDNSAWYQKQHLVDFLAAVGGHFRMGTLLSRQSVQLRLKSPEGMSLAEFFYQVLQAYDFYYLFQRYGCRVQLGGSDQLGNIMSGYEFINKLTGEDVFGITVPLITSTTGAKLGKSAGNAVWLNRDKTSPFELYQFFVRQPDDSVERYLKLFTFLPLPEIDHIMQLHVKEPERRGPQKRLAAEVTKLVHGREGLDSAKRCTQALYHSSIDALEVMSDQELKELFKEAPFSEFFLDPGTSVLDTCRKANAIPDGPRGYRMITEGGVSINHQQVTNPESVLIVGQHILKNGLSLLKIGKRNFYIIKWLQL

Compound: Cc1cc(ccc1-c1ccccc1)C(=O)N1CCCN(CC1)C(=O)CCl [compound 10]
Experiment: probe-labelled cysteine peptide fold change vs DMSO (competition) (log2 fold change); higher = less target engagement (more negative = stronger competition)
Details: THP-1, incubation time: 4 h
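Further: competitive profiling in live THP-1 cells: cysteine peptides tagged with an iodoacetamide desthiobiotin (IA-DTB) probe, intensity after compound treatment relative to DMSO-treated cells.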

| Target | probe-labelled cysteine peptide fold change (10 µM) | probe-labelled cysteine peptide fold change (50 µM) |
| --- | --- | --- |
| ZC3H7A_Q8IWR0_515_DVAAEEECR (UniProt Q8IWR0) | -0.0685 | -0.0963 |
| XRN2_Q9H0D6_736_FSLDEEAILPDQIVCSPVPMLR (UniProt Q9H0D6) | 0.25 | 0.374 |
| XPO5_Q9HAV4_977_EVMDLITVCCVSK (UniProt Q9HAV4) | -0.0762 | -0.196 |
| ZC3HAV1L_Q96H79_163_ILLLQNDPCLLPEVCLLYNK (UniProt Q96H79) | 0.129 | 0.0761 |
| ZC3HAV1L_Q96H79_99_GECQACDQLHFCR (UniProt Q96H79) | 0.0733 | 0.152 |
| ZFAND1_Q8TCF1_33_DFLPFVCDDCSGIFCLEHR (UniProt Q8TCF1) | 0.107 | -0.0951 |
| ZDHHC21_Q8IVQ6_109_CGHCVR (UniProt Q8IVQ6) | 0.082 | -0.0198 |
| YWHAZ_P63104_94_DICNDVLSLLEK (UniProt P63104) | 0.233 | 0.309 |
| XRCC1_P18887_389_EWVLDCHR (UniProt P18887) | -0.0723 | 0.107 |
| ZDHHC21_Q8IVQ6_106_SHHCSR (UniProt Q8IVQ6) | 0.368 | 0.0748 |
| YDJC_A8MPS7_212_WTDAFVGLSTCGR (UniProt A8MPS7) | -0.364 | -0.788 |
| ZC3H7B_Q9UGR2_576_DSPSVCSNLAAK (UniProt Q9UGR2) | -0.047 | -0.193 |
| YWHAG_P61981_194_LGLALNYSVFYYEIQNAPEQACHLAK (UniProt P61981) | 0.0292 | 0.41 |
| ZBTB11_O95625_214_LSNQFCDVTLLIEGEEYK (UniProt O95625) | -0.115 | 0.206 |
| YAE1_Q9NRH1_143_SITPPSHVVDLLDSIEDMDLCHVVPAEK (UniProt Q9NRH1) | -0.335 | 0.0421 |
| ZCCHC3_Q9NUD5_375_GIVCNLCGK (UniProt Q9NUD5) | 0.0461 | 0.0417 |
| ZC3H7A_Q8IWR0_775_QMPLQFDLCNHIASGK (UniProt Q8IWR0) | 0.00359 | -0.0723 |
| ZFAND1_Q8TCF1_217_LCHITSGEALPLDHTLETWIAK (UniProt Q8TCF1) | 0.0314 | -0.335 |
| ZFAND1_Q8TCF1_15_AELDIGQHCQVEHCR (UniProt Q8TCF1) | 0.166 | 0.046 |
| ZC3H14_Q6PJT7_628_AFPNCK (UniProt Q6PJT7) | 0.0996 | -0.221 |
| ZCCHC3_Q9NUD5_385_RGHAFAQCPK (UniProt Q9NUD5) | 0.0637 | 0.102 |
| ZC3HC1_Q86WB0_102_WAGKPFELSPLVCAK (UniProt Q86WB0) | -0.137 | -0.533 |

| Target | probe-labelled cysteine peptide fold change (10 µM) | probe-labelled cysteine peptide fold change (50 µM) |
| --- | --- | --- |
| ZC3HAV1L_Q96H79_99+108_GECQACDQLHFCR (UniProt Q96H79) | -0.126 | 0.0744 |
| XRN2_Q9H0D6_296_GKHDELADSLPCAEGEFIFLR (UniProt Q9H0D6) | 0.0027 | 0.00289 |
| ZDHHC12_Q96GR4_102_YCLVLQPLR (UniProt Q96GR4) | -0.0118 | -0.279 |
| ZBTB34_Q8NCN2_402_LHMGITPFVCK (UniProt Q8NCN2) | -0.127 | -0.0641 |
| YWHAE_P62258_98_LICCDILDVLDK (UniProt P62258) | 0.136 | -0.323 |
| XPR1_Q9UBH6_62_FFQTCEK (UniProt Q9UBH6) | 0.0667 | 0.0284 |
| XPO7_Q9UIA9_15_ADHVQSLAQLENLCK (UniProt Q9UIA9) | 0.239 | 0.121 |
| ZC3H4_Q9UPT8_448_AENCPYMHGDFPCK (UniProt Q9UPT8) | 0.143 | -0.0513 |
| ZCCHC10_Q8TBK6_58_CLEFGHWTYECTGK (UniProt Q8TBK6) | 0.067 | 0.38 |
| ZBTB33_Q86T24_32_GHGLFCDVTVIVEDRK (UniProt Q86T24) | 0.167 | 0.0822 |
| XRN1_Q8IZH2_1104_PHLLYRPLEQQHGVIPDRDAEFCLFDR (UniProt Q8IZH2) | -0.0272 | 0.168 |
| ZC3HAV1_Q7Z2W4_78_YCQRPCDNLHLCK (UniProt Q7Z2W4) | 0.0823 | -0.0451 |
| ZFC3H1_O60293_241_QIQLELECINKDEK (UniProt O60293) | -0.0813 | -0.55 |
| ZC3H12A_Q5D1E8_374_RPSPSSQSSSLLTESEQCSLDGK (UniProt Q5D1E8) | -0.349 | -0.484 |
| ZADH2_Q8N4Q0_55_DCPVPLPGDGDLLVR (UniProt Q8N4Q0) | -0.148 | 0.0224 |
| ZC3H12B_Q5HYM0_361_KQPCPYGK (UniProt Q5HYM0) | -0.0664 | 0.0174 |
| ZFAND6_Q6FIF0_170_CGNVYCGVHR (UniProt Q6FIF0) | 0.218 | 0.169 |
| XRCC5_P13010_346_CFSVLGFCK (UniProt P13010) | -0.101 | -0.00582 |
| ZC3HAV1_Q7Z2W4_7_ADPEVCCFITK (UniProt Q7Z2W4) | 0.158 | 0.175 |
| ZCCHC3_Q9NUD5_385_GHAFAQCPK (UniProt Q9NUD5) | 0.0381 | -0.0115 |
| YES1_P07947_42_YRPENTPEPVSTSVSHYGAEPTTVSPCPSSSAK (UniProt P07947) | -0.345 | -0.501 |
| YARS2_Q9Y2Z4_413_EAPFSEFFLDPGTSVLDTCRK (UniProt Q9Y2Z4) | -0.161 | -0.368 |

Reformatted as tab-separated lines: part of the list above
Target	probe-labelled cysteine peptide fold change (10 µM)	probe-labelled cysteine peptide fold change (50 µM)
ZDHHC12_Q96GR4_102_YCLVLQPLR (UniProt Q96GR4)	-0.0118	-0.279
ZBTB34_Q8NCN2_402_LHMGITPFVCK (UniProt Q8NCN2)	-0.127	-0.0641
YWHAE_P62258_98_LICCDILDVLDK (UniProt P62258)	0.136	-0.323
ZC3H4_Q9UPT8_448_AENCPYMHGDFPCK (UniProt Q9UPT8)	0.143	-0.0513
ZCCHC10_Q8TBK6_58_CLEFGHWTYECTGK (UniProt Q8TBK6)	0.067	0.38
XRN1_Q8IZH2_1104_PHLLYRPLEQQHGVIPDRDAEFCLFDR (UniProt Q8IZH2)	-0.0272	0.168
ZFC3H1_O60293_241_QIQLELECINKDEK (UniProt O60293)	-0.0813	-0.55
ZC3H12A_Q5D1E8_374_RPSPSSQSSSLLTESEQCSLDGK (UniProt Q5D1E8)	-0.349	-0.484
ZADH2_Q8N4Q0_55_DCPVPLPGDGDLLVR (UniProt Q8N4Q0)	-0.148	0.0224
ZC3H12B_Q5HYM0_361_KQPCPYGK (UniProt Q5HYM0)	-0.0664	0.0174
ZFAND6_Q6FIF0_170_CGNVYCGVHR (UniProt Q6FIF0)	0.218	0.169
XRCC5_P13010_346_CFSVLGFCK (UniProt P13010)	-0.101	-0.00582
ZC3HAV1_Q7Z2W4_7_ADPEVCCFITK (UniProt Q7Z2W4)	0.158	0.175
ZCCHC3_Q9NUD5_385_GHAFAQCPK (UniProt Q9NUD5)	0.0381	-0.0115
YES1_P07947_42_YRPENTPEPVSTSVSHYGAEPTTVSPCPSSSAK (UniProt P07947)	-0.345	-0.501
YARS2_Q9Y2Z4_413_EAPFSEFFLDPGTSVLDTCRK (UniProt Q9Y2Z4)	-0.161	-0.368

(continued)

| Target | probe-labelled cysteine peptide fold change (10 µM) | probe-labelled cysteine peptide fold change (50 µM) |
| --- | --- | --- |
| ZC3HAV1L_Q96H79_99+102_GECQACDQLHFCR (UniProt Q96H79) | -0.135 | -0.106 |
| ZC3HAV1_Q7Z2W4_831_NCPYDAK (UniProt Q7Z2W4) | -0.115 | 0.0469 |
| ZCCHC3_Q9NUD5_372_KGIVCNLCGK (UniProt Q9NUD5) | 0.0789 | -0.311 |
| YTHDC2_Q9H6S0_472_EMDACLSDIWLHK (UniProt Q9H6S0) | 0.18 | 0.25 |
| XRCC1_P18887_20_HVVSCSSQDSTHCAENLLK (UniProt P18887) | 0.234 | 0.244 |
| XRCC5_P13010_296_ETVYCLNDDDETEVLK (UniProt P13010) | -0.149 | 0.549 |
| YWHAQ_P27348_25_LAEQAERYDDMATCMK (UniProt P27348) | -0.259 | -0.845 |
| XPO5_Q9HAV4_419_TDSPSCEYSR (UniProt Q9HAV4) | 0.0519 | 0.555 |
| ZBTB7A_O95365_123_LLEIPAVSHVCADLLDR (UniProt O95365) | 0.0274 | 0.227 |
| XRCC5_P13010_157_CDISLQFFLPFSLGKEDGSGDRGDGPFR (UniProt P13010) | -0.0173 | -0.353 |
| XRCC5_P13010_418_HNYECLVYVQLPFMEDLR (UniProt P13010) | 0.121 | 0.3 |
| XRN1_Q8IZH2_1487_LSNGLLVHGPQCHSENEAK (UniProt Q8IZH2) | 0.144 | -0.0844 |
| XPO6_Q96QU8_299_MASVNGSSQNCVSGQER (UniProt Q96QU8) | -0.0798 | -0.214 |
| ZC3H7B_Q9UGR2_700_FVCGQCWR (UniProt Q9UGR2) | 0.0673 | 0.072 |
| XPO6_Q96QU8_159_TTSEELACPR (UniProt Q96QU8) | -0.0411 | 0.0136 |
| ZCCHC3_Q9NUD5_277_HCDVLAVPVK (UniProt Q9NUD5) | 0.209 | 0.242 |
| ZC3H7B_Q9UGR2_91_AACYFTMGLYEK (UniProt Q9UGR2) | 0.135 | -0.205 |
| ZC3H12D_A2A288_64_GSCGVPDSAQR (UniProt A2A288) | -0.323 | -0.636 |
| ZBTB7B_O15156_23_GSPEDDLIGIPFPDHSSELLSCLNEQR (UniProt O15156) | -0.485 | 0.416 |
| YJU2_Q9BW85_275_AKADPDCSNGQPQAAPTPGAPQNR (UniProt Q9BW85) | 0.0357 | -0.323 |
| ZC3H7A_Q8IWR0_894_VFHTEDDQYCWQHR (UniProt Q8IWR0) | -0.0643 | -0.276 |
| XPO7_Q9UIA9_767_AIELWYHDPACTTPVLK (UniProt Q9UIA9) | -0.101 | 0.198 |

| Target | probe-labelled cysteine peptide fold change (10 µM) | probe-labelled cysteine peptide fold change (50 µM) |
| --- | --- | --- |
| XPO5_Q9HAV4_1157_LIAGCIGK (UniProt Q9HAV4) | 0.149 | 0.293 |
| ZC3HAV1L_Q96H79_15_VLCAHGGR (UniProt Q96H79) | 0.416 | 0.426 |
| ZCCHC8_Q6NZY4_607_SEAGHASSPDSEVTSLCQK (UniProt Q6NZY4) | 0.0683 | -0.191 |
| YWHAQ_P27348_94_SICTTVLELLDK (UniProt P27348) | -0.00239 | 0.0692 |
| ZBED4_O75132_582_VVCLHCGR (UniProt O75132) | -0.106 | -0.611 |
| ZFAND3_Q9H8U3_192_LPEQHDCTFDHMGR (UniProt Q9H8U3) | -0.152 | -0.347 |
| ZC3H13_Q5T200_1666_LSQSSIQQELCVS (UniProt Q5T200) | -0.178 | 0.201 |
| ZDHHC6_Q9H6R6_295_EGCHQYSLTIEQLK (UniProt Q9H6R6) | 0.0393 | 0.193 |
| XPOT_O43592_522_FFTVEPQHIPCVLMAFLDHR (UniProt O43592) | 0.114 | -0.0413 |
| ZC3H7A_Q8IWR0_572_LLQEHLGEFIFLCEK (UniProt Q8IWR0) | -0.0444 | -0.117 |
| ZBTB11_O95625_737_YLCSVCGK (UniProt O95625) | 0.0656 | 0.437 |
| XRN1_Q8IZH2_132_FDSNCITPGTEFMAR (UniProt Q8IZH2) | 0.0138 | 0.168 |
| YTHDC2_Q9H6S0_25_QPAPGGGGGGGPSPCGPGGGGR (UniProt Q9H6S0) | -0.289 | -0.35 |
| ZC3HAV1_Q7Z2W4_7+8_ADPEVCCFITK (UniProt Q7Z2W4) | 0.00723 | -0.751 |
| ZCCHC3_Q9NUD5_238_REQEDCWENFVVLGR (UniProt Q9NUD5) | 0.132 | 0.283 |
| YWHAQ_P27348_134_YLAEVACGDDRK (UniProt P27348) | -0.0719 | 0.0248 |
| XPO4_Q9C0E2_439_GFFTQHAVQVFNSYIQCHLAAPDGTR (UniProt Q9C0E2) | -0.226 | -0.0306 |
| ZC3HAV1_Q7Z2W4_518_VDDHDSEEICLDHLCK (UniProt Q7Z2W4) | 0.142 | -0.378 |
| XPO5_Q9HAV4_10_AMDQVNALCEQLVK (UniProt Q9HAV4) | 0.245 | 0.0992 |
